# PubChem BioAssay AID624297 (National Center for Advancing Translational Sciences (NCATS), 2012)
# The campaign covered roughly 340,000 compounds. About 6,200 (1.8%) were called active. The inconclusive results got no clear call from the source; some entries with a clear call stand among them for comparison. Calls follow the shape of the dose curve; as a rule, active = well fitted activation curve with a large enough effect; inconclusive = small, poorly fitted or top-dose-only effect; inactive = no such curve, though single readings can be large or run the other way. Where the call is inconclusive, the potency comes from a doubtful curve fit.
# Experiment: A quantitative high throughput screen for small molecules that induce DNA re-replication in SW480 colon adenocarcinoma cells. Also: nearly all actives have a fitted effect of over 55% in size. As to re-replication activation: % of control where 0% means no effect.
# Settings: Hoechst DNA content imaging, 48 h; re-replication activation: at 46.1 µM (top of the series) unless noted
# Text: H Molecular Libraries Probe Production Network [MLPCN] NIH Chemical Genomics Center [NCGC] MLPCN Grant: Fast Track K99 CA136555 Assay Provider: Melvin DePamphilis, NICHD, NIH Assay Overview Eukaryotic cells normally restrict genome duplication to once per cell division. When this process is aberrant, DNA re-replication occurs when cells reinitiate DNA replication before the first round of replication is complete. DNA re-replication induces the DNA damage response, arrests cell proliferation, and triggers apoptosis. The cell cycle components cyclin A, Cdt-1, Cdc6 and geminin are critical regulators of this process and their misregulation results in DNA re-replication in normal and cancer cells. To identify compounds that induce re-replication in normal cells, an image-based assay was used to measure DNA content of nuclei, as detected by the fluorescent DNA binding dye, Hoechst. Cell nuclei were imaged by a fluorescence scanning plate imager and compounds that induce DNA re-replication were identified by the increase of nuclei with elevated fluorescence intensity
# For screening, 250 cells in 5 uL/well were dispensed into black clear 1536-well plates (Aurora) using a solenoid-based dispenser. Following transfer of 23 nL compound or DMSO vehicle by a pin tool, the plates were incubated 48 hr at 37 C and 5% CO2. After addition of 1 uL/well Hoescht stain, the plates were incubated 40 min at 37 C, 5% CO2 and total intensity of fluorescent objects (nuclei) were enumerated by an Acumen Explorer Ex3 (TTP LabTech) fluorescence scanning plate imager (405 nm excitation, 500-530 nm emission). Keywords: NIH Roadmap, MLPCN, MLI, MLSMR, qHTS, NCGC, DNA replication, cancer
# Potency is read from the fitted curve at half-maximal effect.
Structure (SMILES),Potency,re-replication activation
COc1ccc(-c2ccnc(-c3ccc(OCCCF)cc3)n2)cc1,"inconclusive: 18.4 µM [activator, single point]",
Cn1cc(/C=N\O)nc2c(=O)n(-c3ccccc3)c(=O)nc1-2,,inactive: -6.47%
O=C(Nc1cc2c(cc1Cl)-c1ccc([N+](=O)[O-])cc1C2=NO)C(F)(F)F,,inactive: 0.919%
C[C@@H](CN=[N+]=[N-])CN1CC[C@H](C(C)(C)C)CCC1=O,"inconclusive: 2.91 µM [activator, single point]",
Cc1sc2nc(COC(=O)c3ccc(N4CCCC4)c([N+](=O)[O-])c3)[nH]c(=O)c2c1C,,inactive: 3.34%
Cc1cccc(NC(=O)c2ccc([N+](=O)[O-])o2)c1,active: 3.66 µM,
COc1ccc(C(=S)N2CCOCC2)cc1OC(=O)c1ccc([N+](=O)[O-])cc1[N+](=O)[O-],"inconclusive: 16.4 µM [activator, partial curve, poor fit]",
O=C(Oc1cc2oc(=O)c3c(c2cc1Cl)CCCC3)c1ccco1,"inconclusive: 20.6 µM [activator, single point]",
COCCCNc1nc(N)c([N+](=O)[O-])c(NC2CCCCC2)n1,"inconclusive: 23.1 µM [activator, single point]",
COC(=O)c1nnn(-c2nonc2N)c1COc1ccc(C=O)cc1OC,"inconclusive: 20.6 µM [activator, partial curve, poor fit]",
COc1ccc(NC(=O)c2cc3c(Cl)nc4ccccc4c3s2)cc1OC,"inconclusive: 18.4 µM [activator, single point]",
O=C(COC(=O)/C=C/c1ccc(Cl)cc1)NCCC1=CCCCC1,"inconclusive: 4.11 µM [activator, single point]",
CCc1nc(SCC(=O)N2c3ccccc3Sc3ccccc32)c2ccccc2n1,,inactive: 8.12%
CC(=O)Nc1ccc(NC(=S)Nc2ccccc2)cc1,"inconclusive: 6.51 µM [activator, single point]",
COc1ccc(-n2ncc3c2CC(C)(C)CC3NC(=O)CCC2=NNC(=O)CC2)cc1 (configuration not stated),"inconclusive: 0.103 µM [activator, full curve, poor fit]",
CCCNC(=O)CCNC(=O)c1ccc(C(C)(C)C)cc1,"inconclusive: 5.17 µM [activator, single point]",
CN(CC(=O)Nc1cccc(S(=O)(=O)N2CCCC2)c1)CC(=O)Nc1ccc(Cl)c(C(F)(F)F)c1,"inconclusive: 18.4 µM [activator, single point]",
COc1ccc(CCNC(=O)C2CCN(C(=O)c3ccc(Br)cc3)CC2)cc1,"inconclusive: 6.51 µM [activator, single point]",
CC1=NN(C(=O)c2ccc(Br)cc2)C(O)(c2ccccc2)C1 (configuration not stated),"inconclusive: 29.1 µM [activator, single point]",
Cc1cc(C)nc(SCC(=O)NC2=NN=C(c3ccc(Br)cc3)CS2)n1,"inconclusive: 22.4 µM [activator, single point]",
COC(=O)C1=CN(Cc2ccc(OC)c(OC)c2)C=C(C(=O)OC)C1c1cccc(O)c1,"inconclusive: 20.6 µM [activator, single point]",
COc1ccc(N=C2CCS(=O)(=O)c3sccc32)cc1,"inconclusive: 29.1 µM [activator, single point]",
Cc1ccccc1C(=O)Nc1ccc2nc3n(c(=O)c2c1)CCCC3,"inconclusive: 29.1 µM [activator, single point]",

Structure (SMILES),Potency,re-replication activation
CC(C)c1ccc(NC(=O)c2cc(Br)ccc2Br)cc1,,inactive: 3.78%
c1cnc2ccc(C(c3nnnn3C3CCCCC3)N3CCN(C4CCCCC4)CC3)cc2c1 (configuration not stated),,inactive: -1.78%
CCN=c1scc(-c2cccs2)n1/N=C/c1cc(OC)ccc1O,"inconclusive: 14.6 µM [activator, partial curve, poor fit]",
O=C1C(Cl)=C(Nc2ccccc2)C(=O)c2ccccc21,"inconclusive: 4.61 µM [activator, single point]",
NS(=O)(=O)c1cccc(-n2cnnn2)c1,"inconclusive: 6.51 µM [activator, single point]",
COc1ccc(-c2sc(NC(C)=O)nc2-c2ccccc2)cc1,"inconclusive: 29.1 µM [activator, single point]",
CN1CCC(Oc2ccccc2Sc2ccc(C(F)(F)F)cc2)CC1,"inconclusive: 20.6 µM [activator, single point]",
Cc1[nH]c2ccccc2c1/C=N/Nc1nc(Nc2ccccc2)nc(N2CCOCC2)n1,"inconclusive: 2.59 µM [activator, full curve]",
CC1(C)COC(/C=C/c2cccc([N+](=O)[O-])c2)=N1,"inconclusive: 10.3 µM [activator, partial curve]",
CC(Nn1cnnc1)c1cc(Cl)ccc1O (configuration not stated),"inconclusive: 13 µM [activator, partial curve, poor fit]",
O=C1NCCn2ccc(=O)cc21,,inactive: 1.1%
CCn1c2ccccc2c2cc(/C=N/NC(=O)c3ccccc3)ccc21,"inconclusive: 29.1 µM [activator, single point]",
Cc1cccc(C)c1NC(=O)C(Cl)=C(Cl)Cl,"inconclusive: 20.6 µM [activator, single point]",
COc1ccccc1/C=C/C(=O)/C=C/c1ccccc1O,"inconclusive: 18.4 µM [activator, single point]",
C/C(N)=C(/C#N)C(=O)CSc1nn(-c2ccc(Cl)cc2)c(=S)s1,"inconclusive: 0.794 µM [activator, partial curve, poor fit]",
CCOc1cc2c3c(c1)C1(OCCO1)C(=O)N3C(C)(C)CC2C (configuration not stated),,inactive: -6.09%
COc1cc2sc3ccc(-c4ccc5[nH]ccc5c4)cc3c(=O)c2cc1OC,"inconclusive: 29.1 µM [activator, partial curve, poor fit]",
O=c1[nH]c2ccccc2c(O)c1O,,inactive: -31.2%
NC(=O)CCN1CCN(CCOC2Cc3cc(Cl)ccc3Sc3ccccc32)CC1 (configuration not stated),"inconclusive: 18.4 µM [activator, single point]",
O=C(CSc1ccccc1F)OCC(=O)N1CCN(C(=O)c2ccco2)CC1,"inconclusive: 29.1 µM [activator, single point]",
COc1ccc(Nc2nc3nonc3nc2N2CCCCC2)cc1,,inactive: -2.55%
CC(c1ccon1)N(C)Cc1cn(Cc2ccccc2)nc1-c1ccc2c(c1)OCO2 (configuration not stated),"inconclusive: 0.164 µM [activator, full curve, poor fit]",
Oc1cccc2c(NC(=S)Nc3ccc(OC(F)F)cc3)cccc12,,inactive: 16.9%

# 2 of the compounds above, bar-delimited:
Structure (SMILES) | Potency | re-replication activation
NS(=O)(=O)c1cccc(-n2cnnn2)c1 | inconclusive: 6.51 µM [activator, single point] | 
Cc1cccc(C)c1NC(=O)C(Cl)=C(Cl)Cl | inconclusive: 20.6 µM [activator, single point] | 

# Going on with the list:

Structure (SMILES),Potency,re-replication activation
N#Cc1nc(Nc2cccc(Cl)c2)c2ncn(C3CCCC3)c2n1,"inconclusive: 1.16 µM [activator, single point]",
CC(C)(C)c1nnc(NC(=O)c2cccnc2Cl)s1,,inactive: 1.35%
CCc1cc(=O)oc2cc(O[C@@H]3O[C@H](CO)[C@@H](O)[C@H](O)[C@H]3O)c(Cl)cc12,active: 18.4 µM,
CCOc1ccc(S(=O)(=O)Nc2nc3ccccc3nc2-n2ccc(=NC(=O)c3cccs3)cc2)cc1,"inconclusive: 29.1 µM [activator, partial curve, poor fit]",
C#CCOCCOCCOCCNc1nc(N2CCN(C(=O)CCCCCCCCCCNC(=O)[C@H]([C@@H](C)CC)n3cc(CCCCN=C(N)N)nn3)CC2)nc(N2CCN(C(=O)CCCCCCCCCCNC(=O)[C@H](CCCCN)n3cc(C)nn3)CC2)n1,"inconclusive: 29.1 µM [activator, single point]",
c1csc(CNc2ncnc3sccc23)c1,,inactive: 7.19%
Cc1cc(C(=O)OCC(=O)Nc2ccccc2C)c(C)o1,,inactive: -8.03%
COc1ccc(N2CCN(C3CC(=O)N(c4ccc5c(c4)OCCO5)C3=O)CC2)cc1 (configuration not stated),"inconclusive: 23.1 µM [activator, partial curve, poor fit]",
Nc1ccc2c(c1)C(=NO)c1ccccc1-2,"inconclusive: 29.1 µM [activator, single point]",
C=CCOc1ccc(CN(C)CC(O)COc2cccc3ccccc23)cc1 (configuration not stated),"inconclusive: 29.1 µM [activator, single point]",
Cc1cc(NS(=O)(=O)c2ccc(NC(=O)c3ccc(F)cc3)cc2)nc(C)n1,,inactive: -6.69%
Clc1ccc2nnnc(-c3ccccc3)c2c1,"inconclusive: 4.11 µM [activator, full curve]",
COc1cc(/C=C2\SC(=S)N(CCC(=O)N3CCCCC3)C2=O)cc(OC)c1OC,"inconclusive: 18.4 µM [activator, single point]",
CCCc1nc(SCC(=O)c2ccc(F)cc2)c2ccccc2n1,"inconclusive: 29.1 µM [activator, single point]",
Cc1c(C(=O)NCc2ccc3c(c2)OCO3)oc2ccc(S(=O)(=O)N3CCCCCC3)cc12,,inactive: 0.56%
Cc1ccc(NC(=O)COC(=O)c2cccc(OC(F)F)c2)cc1S(=O)(=O)N1CCCCC1,"inconclusive: 29.1 µM [activator, single point]",
ClC(CCN1CCN(Cc2ccccc2)CC1)c1ccccc1 (configuration not stated),,inactive: -6.99%
COc1ccc(C2/C=C\CN(C(=O)Nc3ccccc3-c3ccccc3)CC(=O)N2Cc2ccc(F)cc2)cc1 (configuration not stated),"inconclusive: 29.1 µM [activator, single point]",
Cc1ccc(S(=O)(=O)c2c(CO)c(-c3ccccc3)nn2C)cc1,"inconclusive: 14.6 µM [activator, single point]",
CS(=O)(=O)Nc1ccccc1C(=O)Nc1cc2c(cc1C(=O)O)OCCCO2,,inactive: -1.58%
COc1ccc(NC(=S)NCCCN2CCCC2=O)c(OC)c1,"inconclusive: 29.1 µM [activator, single point]",
